Experimental data from patent US20250283871A1, “COMPOSITIONS AND METHODS FOR MODULATING THE INTERACTION BETWEEN SS18-SSX FUSION ONCOPROTEIN AND NUCLEOSOMES” (Dana-Farber Cancer Institute, Inc., priority 2020, published 2025).

B1: GNAS (protein, UniProt P63092 2-394, looked up)
Guanine nucleotide-binding …: GCLGNSKTEDQRNEEKAQREANKKIEKQLQKDKQVYRATHRLLLLGAGESGKSTIVKQMRILHVNGFNGEGGEEDPQAARSNSDGEKATKVQDIKNNLKEAIETIVAAMSNLVPPVELANPENQFRVDYILSVMNVPDFDFPPEFYEHAKALWEDEGVRACYERSNEYQLIDCAQYFLDKIDVIKQADYVPSDQDLLRCRVLTSGIFETKFQVDKVNFHMFDVGGQRDERRKWIQCFNDVTAIIFVVASSSYNMVIREDNQTNRLQEALNLFKSIWNNRWLRTISVILFLNKQDLLAEKVLAGKSKIEDYFPEFARYTTPEDATPEPGEDPRVTRAKYFIRDEFLRISTASGDGRHYCYPHFTCAVDTENIRRVFNDCRDIIQRMHLRQYELL
B2: SLC25A19 (protein, UniProt Q9HC21 1-320, looked up)
Mitochondrial thiamine …: MVGYDPKPDGRNNTKFQVAVAGSVSGLVTRALISPFDVIKIRFQLQHERLSRSDPSAKYHGILQASRQILQEEGPTAFWKGHVPAQILSIGYGAVQFLSFEMLTELVHRGSVYDAREFSVHFVCGGLAACMATLTVHPVDVLRTRFAAQGEPKVYNTLRHAVGTMYRSEGPQVFYKGLAPTLIAIFPYAGLQFSCYSSLKHLYKWAIPAEGKKNENLQNLLCGSGAGVISKTLTYPLDLFKKRLQVGGFEHARAAFGQVRRYKGLMDCAKQVLQKEGALGFFKGLSPSLLKAALSTGFMFFSYEFFCNVFHCMNRTASQR
B3: CDS2 (protein, UniProt O95674 1-445, looked up)
Phosphatidate …: MTELRQRVAHEPVAPPEDKESESEAKVDGETASDSESRAESAPLPVSADDTPEVLNRALSNLSSRWKNWWVRGILTLAMIAFFFIIIYLGPMVLMIIVMCVQIKCFHEIITIGYNVYHSYDLPWFRTLSWYFLLCVNYFFYGETVTDYFFTLVQREEPLRILSKYHRFISFTLYLIGFCMFVLSLVKKHYRLQFYMFGWTHVTLLIVVTQSHLVIHNLFEGMIWFIVPISCVICNDIMAYMFGFFFGRTPLIKLSPKKTWEGFIGGFFATVVFGLLLSYVMSGYRCFVCPVEYNNDTNSFTVDCEPSDLFRLQEYNIPGVIQSVIGWKTVRMYPFQIHSIALSTFASLIGPFGGFFASGFKRAFKIKDFANTIPGHGGIMDRFDCQYLMATFVNVYIASFIRGPNPSKLIQQFLTLRPDQQLHIFNTLRSHLIDKGMLTSTTEDE
B4: DHCR7 (protein, UniProt Q9UBM7 1-475, looked up)
7-dehydrocholesterol reductase: MAAKSQPNIPKAKSLDGVTNDRTASQGQWGRAWEVDWFSLASVIFLLLFAPFIVYYFIMACDQYSCALTGPVVDIVTGHARLSDIWAKTPPITRKAAQLYTLWVTFQVLLYTSLPDFCHKFLPGYVGGIQEGAVTPAGVVNKYQINGLQAWLLTHLLWFANAHLLSWFSPTIIFDNWIPLLWCANILGYAVSTFAMVKGYFFPTSARDCKFTGNFFYNYMMGIEFNPRIGKWFDFKLFFNGRPGIVAWTLINLSFAAKQRELHSHVTNAMVLVNVLQAIYVIDFFWNETWYLKTIDICHDHFGWYLGWGDCVWLPYLYTLQGLYLVYHPVQLSTPHAVGVLLLGLVGYYIFRVANHQKDLFRRTDGRCLIWGRKPKVIECSYTSADGQRHHSKLLVSGFWGVARHFNYVGDLMGSLAYCLACGGGHLLPYFYIIYMAILLTHRCLRDEHRCASKYGRDWERYTAAVPYRLLPGIF
B5: TIMM23 (protein, UniProt O14925 1-209, looked up)
Mitochondrial import inner …: MEGGGGSGNKTTGGLAGFFGAGGAGYSHADLAGVPLTGMNPLSPYLNVDPRYLVQDTDEFILPTGANKTRGRFELAFFTIGGCCMTGAAFGAMNGLRLGLKETQNMAWSKPRNVQILNMVTRQGALWANTLGSLALLYSAFGVIIEKTRGAEDDLNTVAAGTMTGMLYKCTGGLRGIARGGLTGLTLTSLYALYNNWEHMKGSLLQQSL
B6: TMCO1 (protein, UniProt Q9UM00 1-239, looked up)
Calcium load-activated …: MPRKRKCDLRAVRVGLLLGGGGVYGSRFRFTFPGCRALSPWRVRVQRRRCEMSTMFADTLLIVFISVCTALLAEGITWVLVYRTDKYKRLKAEVEKQSKKLEKKKETITESAGRQQKKKIERQEEKLKNNNRDLSMVRMKSMFAIGFCFTALMGMFNSIFDGRVVAKLPFTPLSYIQGLSHRNLLGDDTTDCSFIFLYILCTMSIRQNIQKILGLAPSRAATKQAGGFLGPPPPSGKFS
B7: ILVBL (protein, UniProt A1L0T0 1-632, looked up)
2-hydroxyacyl-CoA lyase 2: METPAAAAPAGSLFPSFLLLACGTLVAALLGAAHRLGLFYQLLHKVDKASVRHGGENVAAVLRAHGVRFIFTLVGGHISPLLVACEKLGIRVVDTRHEVTAVFAADAMARLSGTVGVAAVTAGPGLTNTVTAVKNAQMAQSPILLLGGAASTLLQNRGALQAVDQLSLFRPLCKFCVSVRRVRDIVPTLRAAMAAAQSGTPGPVFVELPVDVLYPYFMVQKEMVPAKPPKGLVGRVVSWYLENYLANLFAGAWEPQPEGPLPLDIPQASPQQVQRCVEILSRAKRPLMVLGSQALLTPTSADKLRAAVETLGVPCFLGGMARGLLGRNHPLHIRENRSAALKKADVIVLAGTVCDFRLSYGRVLSHSSKIIIVNRNREEMLLNSDIFWKPQEAVQGDVGSFVLKLVEGLQGQTWAPDWVEELREADRQKEQTFREKAAMPVAQHLNPVQVLQLVEETLPDNSILVVDGGDFVGTAAHLVQPRGPLRWLDPGAFGTLGVGAGFALGAKLCRPDAEVWCLFGDGAFGYSLIEFDTFVRHKIPVMALVGNDAGWTQISREQVPSLGSNVACGLAYTDYHKAAMGLGARGLLLSRENEDQVVKVLHDAQQQCRDGHPVVVNILIGRTDFRDGSIAV
B8: TIMM29 (protein, UniProt Q9BSF4 32-260, looked up)
Mitochondrial import inner …: GSWARALLRDYAEACRDASAEARARPGRAAVYVGLLGGAAACFTLAPSEGAFEEALLEASGTLLLLAPATRNRESEAFVQRLLWLRGRGRLRYVNLGLCSLVYEAPFDAQASLYQARCRYLQPRWTDFPGRVLDVGFVGRWWVLGAWMRDCDINDDEFLHLPAHLRVVGPQQLHSETNERLFDEKYKPVVLTDDQVDQALWEEQVLQKEKKDRLALSQAHSLVQAEAPR
B9: WDR6 (protein, UniProt Q9NNW5 1-1121, looked up)
tRNA …: MDALEDYVWPRATSELILLPVTGLECVGDRLLAGEGPDVLVYSLDFGGHLRMIKRVQNLLGHYLIHGFRVRPEPNGDLDLEAMVAVFGSKGLRVVKISWGQGHFWELWRSGLWNMSDWIWDARWLEGNIALALGHNSVVLYDPVVGCILQEVPCTDRCTLSSACLIGDAWKELTIVAGAVSNQLLVWYPATALADNKPVAPDRRISGHVGIIFSMSYLESKGLLATASEDRSVRIWKVGDLRVPGGRVQNIGHCFGHSARVWQVKLLENYLISAGEDCVCLVWSHEGEILQAFRGHQGRGIRAIAAHERQAWVITGGDDSGIRLWHLVGRGYRGLGVSALCFKSRSRPGTLKAVTLAGSWRLLAVTDTGALYLYDVEVKCWEQLLEDKHFQSYCLLEAAPGPEGFGLCAMANGEGRVKVVPINTPTAAVDQTLFPGKVHSLSWALRGYEELLLLASGPGGVVACLEISAAPSGKAIFVKERCRYLLPPSKQRWHTCSAFLPPGDFLVCGDRRGSVLLFPSRPGLLKDPGVGGKARAGAGAPVVGSGSSGGGNAFTGLGPVSTLPSLHGKQGVTSVTCHGGYVYTTGRDGAYYQLFVRDGQLQPVLRQKSCRGMNWLAGLRIVPDGSMVILGFHANEFVVWNPRSHEKLHIVNCGGGHRSWAFSDTEAAMAFAYLKDGDVMLYRALGGCTRPHVILREGLHGREITCVKRVGTITLGPEYGVPSFMQPDDLEPGSEGPDLTDIVITCSEDTTVCVLALPTTTGSAHALTAVCNHISSVRAVAVWGIGTPGGPQDPQPGLTAHVVSAGGRAEMHCFSIMVTPDPSTPSRLACHVMHLSSHRLDEYWDRQRNRHRMVKVDPETRYMSLAVCELDQPGLGPLVAAACSDGAVRLFLLQDSGRILQLLAETFHHKRCVLKVHSFTHEAPNQRRRLLLCSAATDGSLAFWDLTTMLDHDSTVLEPPVDPGLPYRLGTPSLTLQAHSCGINSLHTLPTREGHHLVASGSEDGSLHVFVLAVEMLQLEEAVGEAGLVPQLRVLEEYSVPCAHAAHVTGLKILSPSIMVSASIDQRLTFWRLGHGEPTFMNSTVFHVPDVADMDCWPVSPEFGHRCALGGQGLEVYNWYD
B10: UFL1 (protein, UniProt O94874 2-794, looked up)
E3 UFM1-protein ligase 1: ADAWEEIRRLAADFQRAQFAEATQRLSERNCIEIVNKLIAQKQLEVVHTLDGKEYITPAQISKEMRDELHVRGGRVNIVDLQQVINVDLIHIENRIGDIIKSEKHVQLVLGQLIDENYLDRLAEEVNDKLQESGQVTISELCKTYDLPGNFLTQALTQRLGRIISGHIDLDNRGVIFTEAFVARHKARIRGLFSAITRPTAVNSLISKYGFQEQLLYSVLEELVNSGRLRGTVVGGRQDKAVFVPDIYSRTQSTWVDSFFRQNGYLEFDALSRLGIPDAVSYIKKRYKTTQLLFLKAACVGQGLVDQVEASVEEAISSGTWVDIAPLLPTSLSVEDAAILLQQVMRAFSKQASTVVFSDTVVVSEKFINDCTELFRELMHQKAEKEMKNNPVHLITEEDLKQISTLESVSTSKKDKKDERRRKATEGSGSMRGGGGGNAREYKIKKVKKKGRKDDDSDDESQSSHTGKKKPEISFMFQDEIEDFLRKHIQDAPEEFISELAEYLIKPLNKTYLEVVRSVFMSSTTSASGTGRKRTIKDLQEEVSNLYNNIRLFEKGMKFFADDTQAALTKHLLKSVCTDITNLIFNFLASDLMMAVDDPAAITSEIRKKILSKLSEETKVALTKLHNSLNEKSIEDFISCLDSAAEACDIMVKRGDKKRERQILFQHRQALAEQLKVTEDPALILHLTSVLLFQFSTHSMLHAPGRCVPQIIAFLNSKIPEDQHALLVKYQGLVVKQLVSQSKKTGQGDYPLNNELDKEQEDVASTTRKELQELSSSIKDLVLKSRKSSVTEE

The molecules below were run on BAF complex subunits and histone proteins (assay: Mass spectrometry proteomics of purified HA-SS18 WT and HA-SS18-SSX1 complexes (Tables 5A-5E)). Details: HA-SS18SSX1_NE_peptides: protein co-purified with HA-SS18-SSX1 BAF complexes from soluble nuclear extract (NE), HEK-293T cells.
Parameters: species or system human

B1 and B2 are the same in “Total (peptides)” value: 3 for the first, 3 for the second.

B3 and B4 are the same in “Total (peptides)” value: 3 for the first, 3 for the second.

B5 and B6 are the same in “Total (peptides)” value: 3 for the first, 3 for the second.

B7 and B8 are the same in “Total (peptides)” value: 2 for the first, 2 for the second.

For B9, the “Total (peptides)” value was 2.

B1 and B2 are the same in “Unique (peptides)” value: 3 for the first, 3 for the second.

B3 and B4 are the same in “Unique (peptides)” value: 2 for the first, 2 for the second.

B5 and B6 are the same in “Unique (peptides)” value: 2 for the first, 2 for the second.

B7 and B8 are the same in “Unique (peptides)” value: 2 for the first, 2 for the second.

B9 was tested, and the “Unique (peptides)” value was 2.

Same assay, conditions: HA-SS18SSX1 purification, NE (soluble nuclear extract) fraction, HEK-293T; peptides per identified protein

B10 was tested, and the “Total (total peptides)” value was 3.

B10 was tested, and the “Unique (unique peptides)” value was 3.

Same assay, conditions: HA-SS18WT_NE_peptides: HA-SS18 WT complexes purified from nuclear extract (NE), HEK-293T; label = protein identified (Gene Symbol)

Going from B10 to B3, the “Total (peptides)” value falls from 3 to 2.

Compared with B6, B7 is higher in “Total (peptides)” value: 4 for the first, 5 for the second.

First: B10
Second: B3
The “Unique (peptides)” value of the first is higher: 3 for the first, 2 for the second.

Compared with B6, B7 is higher in “Unique (peptides)” value: 3 for the first, 5 for the second.

Same assay, conditions: HA-SS18WT_NE_peptides: proteins co-purified with HA-SS18 WT from nuclear extract (NE), HEK-293T

B2 and B4 are the same in “Total (peptides)” value: 2 for the first, 2 for the second.

Going from B5 to B9, the “Total (peptides)” value rises from 1 to 2.

B2 and B4 are the same in “Unique (peptides)” value: 2 for the first, 2 for the second.

First: B5
Second: B9
The “Unique (peptides)” value of the first is lower: 1 for the first, 2 for the second.
